The effect of the compound repeats well; differences between the knockouts mostly do not.
Tested on: BT-20
Test: relative cell number vs DMSO control (72 h) (% of DMSO); higher = less growth inhibition (more cells)
Method: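 QMAP-Seq: a pool of 5 breast cancer cell lines (ZR-75-1, SKBR3, HCC-38, MDA-MB-231, BT-20), each carrying 12 doxycycline-inducible Cas9 sgRNA perturbations (11 knockouts plus non-targeting sgNT), was treated with compounds for 72 h at four 10-fold doses (10 nM-10 uM or 1 nM-1 uM range). Barcodes were amplified and sequenced, and cell number was interpolated from 293T spike-in standard curves. The result is expressed as % of the median of DMSO wells. Two biological replicates.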

C[C@]1(c2nc3c(C(N)=O)cccc3[nH]2)CCCN1 [Veliparib]
Details | relative cell number
sgRNA knockout: sgATF3, 10 nM | 108
sgRNA knockout: sgATF3, 100 nM | 119
sgRNA knockout: sgATF3, 1000 nM | 92.9
sgRNA knockout: sgATF3, 10000 nM | 82.7
sgRNA knockout: sgATF4, 10 nM | 110
sgRNA knockout: sgATF4, 100 nM | 129.1
sgRNA knockout: sgATF4, 1000 nM | 110
sgRNA knockout: sgATF4, 10000 nM | 83.2
sgRNA knockout: sgATF6, 10 nM | 99.8
sgRNA knockout: sgATF6, 100 nM | 112
sgRNA knockout: sgATF6, 1000 nM | 95.7
sgRNA knockout: sgATF6, 10000 nM | 78.4
sgRNA knockout: sgATG7, 10 nM | 107
sgRNA knockout: sgATG7, 100 nM | 102
sgRNA knockout: sgATG7, 1000 nM | 91.1
sgRNA knockout: sgATG7, 10000 nM | 76.4
sgRNA knockout: sgERN1, 10 nM | 109
sgRNA knockout: sgERN1, 100 nM | 103
sgRNA knockout: sgERN1, 1000 nM | 102
sgRNA knockout: sgERN1, 10000 nM | 88.7
sgRNA knockout: sgHSF1, 10 nM | 98.1
sgRNA knockout: sgHSF1, 100 nM | 106
sgRNA knockout: sgHSF1, 1000 nM | 90.1
sgRNA knockout: sgHSF1, 10000 nM | 80.7
sgRNA knockout: sgHSF2, 10 nM | 96.5
sgRNA knockout: sgHSF2, 100 nM | 117
sgRNA knockout: sgHSF2, 1000 nM | 84.5
sgRNA knockout: sgHSF2, 10000 nM | 80.8
sgRNA knockout: sgKEAP1, 10 nM | 94.9
sgRNA knockout: sgKEAP1, 100 nM | 101
sgRNA knockout: sgKEAP1, 1000 nM | 88.2
sgRNA knockout: sgKEAP1, 10000 nM | 81.2
sgRNA knockout: sgNFE2L2, 10 nM | 113
sgRNA knockout: sgNFE2L2, 100 nM | 128
sgRNA knockout: sgNFE2L2, 1000 nM | 94.7
sgRNA knockout: sgNFE2L2, 10000 nM | 86.9
sgRNA knockout: sgSLC35F2, 10 nM | 112
sgRNA knockout: sgSLC35F2, 100 nM | 116
sgRNA knockout: sgSLC35F2, 1000 nM | 97.8
sgRNA knockout: sgSLC35F2, 10000 nM | 87.8
sgRNA knockout: sgXBP1, 10 nM | 107
sgRNA knockout: sgXBP1, 100 nM | 118
sgRNA knockout: sgXBP1, 1000 nM | 99.3
sgRNA knockout: sgXBP1, 10000 nM | 82.1

C[C@@H](Oc1cc(-n2cnc3ccc(CN4CCN(C)CC4)cc32)sc1C(N)=O)c1ccccc1C(F)(F)F
Details | relative cell number
sgRNA knockout: sgATF3, 10 nM | 59.2
sgRNA knockout: sgATF3, 100 nM | 28.1
sgRNA knockout: sgATF3, 1000 nM | 34.2
sgRNA knockout: sgATF3, 10000 nM | 37
sgRNA knockout: sgATF4, 10 nM | 62.5
sgRNA knockout: sgATF4, 100 nM | 31.5
sgRNA knockout: sgATF4, 1000 nM | 31
sgRNA knockout: sgATF4, 10000 nM | 27
sgRNA knockout: sgATF6, 10 nM | 65.4
sgRNA knockout: sgATF6, 100 nM | 21.9
sgRNA knockout: sgATF6, 1000 nM | 26.9
sgRNA knockout: sgATF6, 10000 nM | 27.6
sgRNA knockout: sgATG7, 10 nM | 62.6
sgRNA knockout: sgATG7, 100 nM | 22.8
sgRNA knockout: sgATG7, 1000 nM | 30.8
sgRNA knockout: sgATG7, 10000 nM | 35.8
sgRNA knockout: sgERN1, 10 nM | 52.9
sgRNA knockout: sgERN1, 100 nM | 22.1
sgRNA knockout: sgERN1, 1000 nM | 29.5
sgRNA knockout: sgERN1, 10000 nM | 31.5
sgRNA knockout: sgHSF1, 10 nM | 56.7
sgRNA knockout: sgHSF1, 100 nM | 24.1
sgRNA knockout: sgHSF1, 1000 nM | 31.4
sgRNA knockout: sgHSF1, 10000 nM | 34.8
sgRNA knockout: sgHSF2, 10 nM | 53.8
sgRNA knockout: sgHSF2, 100 nM | 25.7
sgRNA knockout: sgHSF2, 1000 nM | 34
sgRNA knockout: sgHSF2, 10000 nM | 34.8
sgRNA knockout: sgKEAP1, 10 nM | 55.6
sgRNA knockout: sgKEAP1, 100 nM | 21.9
sgRNA knockout: sgKEAP1, 1000 nM | 29
sgRNA knockout: sgKEAP1, 10000 nM | 34.6
sgRNA knockout: sgNFE2L2, 10 nM | 64.3
sgRNA knockout: sgNFE2L2, 100 nM | 35.7
sgRNA knockout: sgNFE2L2, 1000 nM | 32
sgRNA knockout: sgNFE2L2, 10000 nM | 36.4
sgRNA knockout: sgSLC35F2, 10 nM | 54.1
sgRNA knockout: sgSLC35F2, 100 nM | 28
sgRNA knockout: sgSLC35F2, 1000 nM | 31.6
sgRNA knockout: sgSLC35F2, 10000 nM | 36.8
sgRNA knockout: sgXBP1, 10 nM | 68.4
sgRNA knockout: sgXBP1, 100 nM | 28.5
sgRNA knockout: sgXBP1, 1000 nM | 31.1
sgRNA knockout: sgXBP1, 10000 nM | 27

CNC(=O)c1cc(Oc2ccc(NC(=O)Nc3ccc(Cl)c(C(F)(F)F)c3)c(F)c2)ccn1 [Regorafenib]
Details | relative cell number
sgRNA knockout: sgATF3, 10 nM | 95.3
sgRNA knockout: sgATF3, 100 nM | 100
sgRNA knockout: sgATF3, 1000 nM | 101
sgRNA knockout: sgATF3, 10000 nM | 46.1
sgRNA knockout: sgATF4, 10 nM | 119
sgRNA knockout: sgATF4, 100 nM | 103
sgRNA knockout: sgATF4, 1000 nM | 100
sgRNA knockout: sgATF4, 10000 nM | 52.1
sgRNA knockout: sgATF6, 10 nM | 101
sgRNA knockout: sgATF6, 100 nM | 100
sgRNA knockout: sgATF6, 1000 nM | 98.3
sgRNA knockout: sgATF6, 10000 nM | 45.1
sgRNA knockout: sgATG7, 10 nM | 99.5
sgRNA knockout: sgATG7, 100 nM | 92.3
sgRNA knockout: sgATG7, 1000 nM | 119
sgRNA knockout: sgATG7, 10000 nM | 47.2
sgRNA knockout: sgERN1, 10 nM | 116
sgRNA knockout: sgERN1, 100 nM | 105
sgRNA knockout: sgERN1, 1000 nM | 96.7
sgRNA knockout: sgERN1, 10000 nM | 51.6
sgRNA knockout: sgHSF1, 10 nM | 94.9
sgRNA knockout: sgHSF1, 100 nM | 108
sgRNA knockout: sgHSF1, 1000 nM | 85.8
sgRNA knockout: sgHSF1, 10000 nM | 46.3
sgRNA knockout: sgHSF2, 10 nM | 93.2
sgRNA knockout: sgHSF2, 100 nM | 108
sgRNA knockout: sgHSF2, 1000 nM | 117
sgRNA knockout: sgHSF2, 10000 nM | 46
sgRNA knockout: sgKEAP1, 10 nM | 89.1
sgRNA knockout: sgKEAP1, 100 nM | 104
sgRNA knockout: sgKEAP1, 1000 nM | 99.8
sgRNA knockout: sgKEAP1, 10000 nM | 42.1
sgRNA knockout: sgNFE2L2, 10 nM | 108
sgRNA knockout: sgNFE2L2, 100 nM | 128
sgRNA knockout: sgNFE2L2, 1000 nM | 121
sgRNA knockout: sgNFE2L2, 10000 nM | 47.4
sgRNA knockout: sgSLC35F2, 10 nM | 118
sgRNA knockout: sgSLC35F2, 100 nM | 106
sgRNA knockout: sgSLC35F2, 1000 nM | 98.8
sgRNA knockout: sgSLC35F2, 10000 nM | 47.9
sgRNA knockout: sgXBP1, 10 nM | 95.2
sgRNA knockout: sgXBP1, 100 nM | 112
sgRNA knockout: sgXBP1, 1000 nM | 102
sgRNA knockout: sgXBP1, 10000 nM | 45.9

— the supplement of paper PMC7661543
